No constants are given. Whether binding was seen depends on the method and setting. For part of these data: In cells and extracts the contact can be indirect. Some entries that bind do so weakly or less than the wild type. For part of these data: Sequences can lack the tags named with a protein. Values belong to the molecule of their own block, whether it stands above or below them.
Tests used:
HA-tagged LECT2 = target: T1, HA-tagged LECT2 (UniProt O14960); assay: co-IP; 293T cells co-transfected with LECT2-HA and VEGFR2-V5; lysates immunoprecipitated with an HA antibody, immunoblotted
T1 sequence: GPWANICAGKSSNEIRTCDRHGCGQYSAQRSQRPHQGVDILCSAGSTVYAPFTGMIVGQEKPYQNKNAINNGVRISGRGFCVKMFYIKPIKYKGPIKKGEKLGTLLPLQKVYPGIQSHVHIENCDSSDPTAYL

Chains of the proteins cited; added tags and fusions are not shown. Lines headed by an entry give the natural chain unless they say otherwise; changes in a name come on top. A line that says so, or that is headed by a name, gives the form on record, which may keep a tag or linker. Residues count along the entry.
UniProt P35968: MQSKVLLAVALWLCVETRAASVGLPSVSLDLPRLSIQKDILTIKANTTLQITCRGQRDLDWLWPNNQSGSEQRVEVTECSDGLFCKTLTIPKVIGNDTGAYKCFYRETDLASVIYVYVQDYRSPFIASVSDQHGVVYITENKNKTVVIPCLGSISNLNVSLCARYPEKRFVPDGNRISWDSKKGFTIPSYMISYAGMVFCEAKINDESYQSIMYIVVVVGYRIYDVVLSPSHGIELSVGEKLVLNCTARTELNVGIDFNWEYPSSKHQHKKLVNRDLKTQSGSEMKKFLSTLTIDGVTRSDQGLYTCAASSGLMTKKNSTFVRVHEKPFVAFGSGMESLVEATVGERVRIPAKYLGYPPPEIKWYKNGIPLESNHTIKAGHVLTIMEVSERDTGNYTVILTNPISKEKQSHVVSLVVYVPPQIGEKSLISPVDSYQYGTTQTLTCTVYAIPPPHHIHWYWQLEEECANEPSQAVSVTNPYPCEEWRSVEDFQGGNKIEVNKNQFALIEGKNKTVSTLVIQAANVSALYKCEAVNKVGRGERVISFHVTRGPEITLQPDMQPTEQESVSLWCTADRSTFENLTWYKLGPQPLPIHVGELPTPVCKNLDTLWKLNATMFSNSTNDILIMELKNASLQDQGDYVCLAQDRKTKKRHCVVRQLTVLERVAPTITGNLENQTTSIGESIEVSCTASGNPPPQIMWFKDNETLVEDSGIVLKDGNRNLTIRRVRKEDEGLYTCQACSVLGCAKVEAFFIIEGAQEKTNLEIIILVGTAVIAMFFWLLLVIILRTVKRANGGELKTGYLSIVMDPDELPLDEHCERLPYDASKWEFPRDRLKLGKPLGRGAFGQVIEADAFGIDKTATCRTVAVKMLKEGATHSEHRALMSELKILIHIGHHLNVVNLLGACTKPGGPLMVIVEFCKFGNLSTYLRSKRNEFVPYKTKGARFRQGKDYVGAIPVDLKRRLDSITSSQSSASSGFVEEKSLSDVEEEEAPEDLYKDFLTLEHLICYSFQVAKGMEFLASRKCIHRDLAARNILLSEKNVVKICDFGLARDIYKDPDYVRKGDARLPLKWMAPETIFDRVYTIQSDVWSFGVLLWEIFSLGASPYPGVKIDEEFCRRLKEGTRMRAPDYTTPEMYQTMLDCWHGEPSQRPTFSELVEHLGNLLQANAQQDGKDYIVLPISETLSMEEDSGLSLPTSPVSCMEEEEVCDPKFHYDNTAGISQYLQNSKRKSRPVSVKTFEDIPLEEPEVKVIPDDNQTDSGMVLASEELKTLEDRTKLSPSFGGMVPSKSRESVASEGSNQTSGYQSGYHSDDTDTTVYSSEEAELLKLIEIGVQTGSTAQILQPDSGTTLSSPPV
VEGFR2, endogenous in HUVECs (human (endogenous in HUVEC)): residues 20-1356 of P35968
His-tagged VEGFR2 extracellular domain (1-746 amino acids): residues 20-746 of P35968

[1] = target: His-tagged VEGFR2 extracellular domain (1-746 amino acids) (UniProt P35968); assay: pull-down; in vitro binding assay: Fc-tagged rLECT2 and His-tagged VEGFR2 extracellular domain incubated, purified using a nickel-affinity column, washed precipitates western blotted; both purified
[2] = target: VEGFR2, endogenous in HUVECs (human (endogenous in HUVEC)) (UniProt P35968); assay: co-IP; HUVECs treated with control or LECT2 conditioned medium from 293T cells for 30 min; HUVEC lysates immunoprecipitated with an antibody as indicated

binding (HA-tagged LECT2): binds
Molecule: V5-tagged VEGFR2 (from UniProt P35968 20-1356) (receptor)

binding [1]: binds
Molecule: Fc-tagged recombinant human LECT2 protein (leukocyte cell-derived chemotaxin 2) (from UniProt O14960 19-151) (Fc fusion)

binding [2]: binds
B1: LECT2 in conditioned medium of 293T cells overexpressing LECT2 (protein, UniProt O14960 19-151)
chain: T1 sequence
